Where a name gives a salt, the structure may show the parent alone. Some of the results follow. Hit calls seldom repeat between salt and free forms of one compound.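 In K562 cells expressing nanoluciferase-fused kinases, luminescence was recorded at 4 h intervals between 2 and 18 h, normalized as percent of control with DMSO at 100% and a positive control at 0%. A significant (2 sigma) signal drop marks a time point as decreased. The authors' rule for a hit is not shown and takes in more than the number of time points.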
Experiments:
Assay in all cases: kinase-Nluc reporter destabilization hit call (1 = scored as downregulated) (binary); higher = compound decreases kinase abundance
Conditions in all cases: K562; 2-18 h
[1] = target: IRAK3 (UniProt Q9Y616)
[2] = target: JAK1 (UniProt P23458)
[3] = target: LCK (UniProt P06239)
[4] = target: LIMK1 (UniProt P53667)
[5] = target: LIMK2 (UniProt P53671)
[6] = target: LMTK2 (UniProt Q8IWU2)
[7] = target: LYN (UniProt P07948)
[8] = target: MAP2K1 (UniProt Q02750)
[9] = target: MAP2K2 (UniProt P36507)
[10] = target: MAP4K2 (UniProt Q12851)

Chains of the proteins cited; added tags and fusions are not shown. Lines headed by an entry give the natural chain unless they say otherwise; changes in a name come on top.
UniProt Q9Y616: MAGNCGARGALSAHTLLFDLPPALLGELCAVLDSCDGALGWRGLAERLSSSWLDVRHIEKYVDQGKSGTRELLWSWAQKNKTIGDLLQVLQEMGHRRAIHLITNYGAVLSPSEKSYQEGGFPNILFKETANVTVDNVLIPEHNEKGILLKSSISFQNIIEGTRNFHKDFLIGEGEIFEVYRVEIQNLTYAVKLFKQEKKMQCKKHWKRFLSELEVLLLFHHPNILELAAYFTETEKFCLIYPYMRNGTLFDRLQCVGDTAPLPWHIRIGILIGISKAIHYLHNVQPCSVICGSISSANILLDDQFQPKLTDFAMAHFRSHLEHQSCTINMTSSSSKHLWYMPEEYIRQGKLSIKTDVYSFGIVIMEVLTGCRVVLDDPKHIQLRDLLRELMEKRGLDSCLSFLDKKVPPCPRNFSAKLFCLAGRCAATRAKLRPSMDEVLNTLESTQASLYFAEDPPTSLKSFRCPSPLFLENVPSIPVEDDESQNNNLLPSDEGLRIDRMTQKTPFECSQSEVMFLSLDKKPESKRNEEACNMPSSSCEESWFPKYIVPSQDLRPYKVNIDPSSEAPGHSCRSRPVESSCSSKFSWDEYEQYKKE
UniProt P23458: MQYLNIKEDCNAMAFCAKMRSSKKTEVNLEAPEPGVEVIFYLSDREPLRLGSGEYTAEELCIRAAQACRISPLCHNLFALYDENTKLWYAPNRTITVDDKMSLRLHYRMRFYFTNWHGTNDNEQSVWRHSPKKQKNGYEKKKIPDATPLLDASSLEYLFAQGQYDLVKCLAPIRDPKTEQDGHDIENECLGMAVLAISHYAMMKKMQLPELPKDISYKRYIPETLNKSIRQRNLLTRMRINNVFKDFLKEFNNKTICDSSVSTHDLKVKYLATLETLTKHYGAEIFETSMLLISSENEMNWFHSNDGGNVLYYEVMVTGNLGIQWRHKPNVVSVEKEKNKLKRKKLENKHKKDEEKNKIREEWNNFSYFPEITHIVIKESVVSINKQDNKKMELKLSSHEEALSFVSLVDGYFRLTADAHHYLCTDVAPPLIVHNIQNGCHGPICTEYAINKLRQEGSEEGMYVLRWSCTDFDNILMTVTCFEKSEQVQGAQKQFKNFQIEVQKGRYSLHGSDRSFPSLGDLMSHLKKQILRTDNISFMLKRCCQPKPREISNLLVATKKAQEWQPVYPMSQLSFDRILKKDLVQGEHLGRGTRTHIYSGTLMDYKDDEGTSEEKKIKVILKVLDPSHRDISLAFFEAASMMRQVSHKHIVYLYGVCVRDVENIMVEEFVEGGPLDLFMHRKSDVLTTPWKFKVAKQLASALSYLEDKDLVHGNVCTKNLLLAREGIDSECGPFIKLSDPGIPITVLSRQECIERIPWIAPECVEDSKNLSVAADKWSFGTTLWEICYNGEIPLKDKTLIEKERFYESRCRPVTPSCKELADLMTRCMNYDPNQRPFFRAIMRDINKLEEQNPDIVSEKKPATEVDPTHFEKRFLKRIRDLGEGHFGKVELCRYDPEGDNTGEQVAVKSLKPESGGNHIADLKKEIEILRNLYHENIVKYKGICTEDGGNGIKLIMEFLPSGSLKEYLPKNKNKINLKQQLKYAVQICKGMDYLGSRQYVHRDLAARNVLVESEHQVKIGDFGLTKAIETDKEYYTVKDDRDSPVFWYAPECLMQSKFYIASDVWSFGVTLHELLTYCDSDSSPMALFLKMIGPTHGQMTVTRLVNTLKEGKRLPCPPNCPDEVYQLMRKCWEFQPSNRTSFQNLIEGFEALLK
UniProt P06239: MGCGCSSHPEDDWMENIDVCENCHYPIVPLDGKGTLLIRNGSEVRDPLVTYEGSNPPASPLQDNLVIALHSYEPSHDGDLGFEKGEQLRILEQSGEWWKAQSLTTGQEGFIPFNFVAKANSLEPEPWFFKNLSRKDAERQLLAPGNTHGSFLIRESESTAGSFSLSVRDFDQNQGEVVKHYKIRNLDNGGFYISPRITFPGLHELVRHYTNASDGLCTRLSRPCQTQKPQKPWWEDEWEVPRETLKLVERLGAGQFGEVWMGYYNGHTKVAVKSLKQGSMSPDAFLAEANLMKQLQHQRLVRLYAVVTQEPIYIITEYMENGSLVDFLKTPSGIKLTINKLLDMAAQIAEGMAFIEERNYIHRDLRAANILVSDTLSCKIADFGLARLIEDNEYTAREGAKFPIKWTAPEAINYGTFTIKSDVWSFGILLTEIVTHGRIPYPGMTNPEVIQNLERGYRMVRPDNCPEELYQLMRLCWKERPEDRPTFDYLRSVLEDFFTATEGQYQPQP
UniProt P53667: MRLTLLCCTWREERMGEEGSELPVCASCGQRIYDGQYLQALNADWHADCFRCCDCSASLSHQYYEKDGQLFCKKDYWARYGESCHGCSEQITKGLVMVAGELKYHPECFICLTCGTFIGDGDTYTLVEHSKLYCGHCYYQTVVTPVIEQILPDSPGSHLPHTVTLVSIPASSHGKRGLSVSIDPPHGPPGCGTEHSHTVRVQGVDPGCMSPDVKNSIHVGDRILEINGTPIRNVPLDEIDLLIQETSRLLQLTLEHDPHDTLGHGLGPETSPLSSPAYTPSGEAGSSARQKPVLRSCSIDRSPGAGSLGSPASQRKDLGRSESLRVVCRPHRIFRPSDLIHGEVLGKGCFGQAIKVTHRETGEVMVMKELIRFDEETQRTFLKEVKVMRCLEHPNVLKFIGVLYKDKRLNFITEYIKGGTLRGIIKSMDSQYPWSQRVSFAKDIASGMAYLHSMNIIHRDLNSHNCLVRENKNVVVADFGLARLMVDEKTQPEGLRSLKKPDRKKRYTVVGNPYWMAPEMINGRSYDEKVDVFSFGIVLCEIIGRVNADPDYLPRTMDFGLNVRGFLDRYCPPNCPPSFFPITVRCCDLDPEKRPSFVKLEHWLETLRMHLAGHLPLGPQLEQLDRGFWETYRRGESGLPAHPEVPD
UniProt P53671: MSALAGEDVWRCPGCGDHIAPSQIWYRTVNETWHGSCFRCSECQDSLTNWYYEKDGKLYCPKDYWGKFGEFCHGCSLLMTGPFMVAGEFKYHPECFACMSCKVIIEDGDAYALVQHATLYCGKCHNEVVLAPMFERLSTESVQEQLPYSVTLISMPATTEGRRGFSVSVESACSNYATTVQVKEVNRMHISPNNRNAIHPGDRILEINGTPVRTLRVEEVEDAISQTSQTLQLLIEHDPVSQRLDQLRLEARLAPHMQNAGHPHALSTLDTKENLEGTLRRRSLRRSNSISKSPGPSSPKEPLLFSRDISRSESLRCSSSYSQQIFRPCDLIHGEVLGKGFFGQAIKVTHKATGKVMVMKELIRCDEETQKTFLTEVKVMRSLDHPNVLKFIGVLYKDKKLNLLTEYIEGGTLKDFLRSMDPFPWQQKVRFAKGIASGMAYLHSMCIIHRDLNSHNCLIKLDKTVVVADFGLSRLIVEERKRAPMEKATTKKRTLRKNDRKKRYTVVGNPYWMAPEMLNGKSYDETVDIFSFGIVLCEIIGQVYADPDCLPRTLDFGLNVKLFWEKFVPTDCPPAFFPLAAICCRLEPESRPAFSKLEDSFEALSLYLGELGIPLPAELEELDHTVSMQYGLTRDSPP
UniProt Q8IWU2: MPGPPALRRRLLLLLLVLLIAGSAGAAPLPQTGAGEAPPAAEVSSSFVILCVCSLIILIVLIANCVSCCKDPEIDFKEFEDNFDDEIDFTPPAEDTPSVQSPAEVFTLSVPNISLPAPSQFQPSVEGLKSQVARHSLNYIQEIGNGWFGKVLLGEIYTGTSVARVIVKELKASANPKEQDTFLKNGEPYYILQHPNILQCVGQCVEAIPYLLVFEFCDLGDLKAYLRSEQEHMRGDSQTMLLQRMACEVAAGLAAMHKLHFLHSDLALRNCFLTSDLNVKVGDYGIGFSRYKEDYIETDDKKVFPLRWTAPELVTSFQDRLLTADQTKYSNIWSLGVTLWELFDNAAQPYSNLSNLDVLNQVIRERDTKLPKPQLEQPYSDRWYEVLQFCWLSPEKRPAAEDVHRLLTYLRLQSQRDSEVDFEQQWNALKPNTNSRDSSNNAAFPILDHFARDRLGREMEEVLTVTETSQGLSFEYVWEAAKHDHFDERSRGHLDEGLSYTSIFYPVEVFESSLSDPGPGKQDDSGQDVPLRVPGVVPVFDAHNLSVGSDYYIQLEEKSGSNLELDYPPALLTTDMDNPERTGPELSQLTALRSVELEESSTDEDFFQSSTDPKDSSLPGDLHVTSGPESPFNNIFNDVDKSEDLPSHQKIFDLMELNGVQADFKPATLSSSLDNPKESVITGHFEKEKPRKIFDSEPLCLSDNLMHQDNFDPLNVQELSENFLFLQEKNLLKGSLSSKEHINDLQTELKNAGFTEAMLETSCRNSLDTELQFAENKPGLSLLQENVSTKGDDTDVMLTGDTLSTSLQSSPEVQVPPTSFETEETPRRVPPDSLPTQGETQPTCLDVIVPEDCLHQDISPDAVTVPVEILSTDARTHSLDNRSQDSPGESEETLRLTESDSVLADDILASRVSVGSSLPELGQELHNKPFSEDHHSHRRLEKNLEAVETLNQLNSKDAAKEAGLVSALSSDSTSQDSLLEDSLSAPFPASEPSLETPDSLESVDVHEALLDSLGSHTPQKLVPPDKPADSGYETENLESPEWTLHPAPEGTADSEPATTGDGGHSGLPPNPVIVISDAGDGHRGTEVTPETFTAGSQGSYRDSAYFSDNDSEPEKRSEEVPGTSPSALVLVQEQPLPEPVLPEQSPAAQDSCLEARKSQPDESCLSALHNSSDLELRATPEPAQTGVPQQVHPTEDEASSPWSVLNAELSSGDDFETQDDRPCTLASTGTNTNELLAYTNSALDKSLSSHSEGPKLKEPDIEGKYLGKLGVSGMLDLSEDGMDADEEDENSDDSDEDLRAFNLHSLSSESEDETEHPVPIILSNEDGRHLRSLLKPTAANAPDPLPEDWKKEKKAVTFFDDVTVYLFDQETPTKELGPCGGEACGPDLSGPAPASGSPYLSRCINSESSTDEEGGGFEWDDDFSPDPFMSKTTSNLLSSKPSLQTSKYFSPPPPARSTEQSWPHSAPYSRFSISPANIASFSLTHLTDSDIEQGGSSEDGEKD
UniProt P07948: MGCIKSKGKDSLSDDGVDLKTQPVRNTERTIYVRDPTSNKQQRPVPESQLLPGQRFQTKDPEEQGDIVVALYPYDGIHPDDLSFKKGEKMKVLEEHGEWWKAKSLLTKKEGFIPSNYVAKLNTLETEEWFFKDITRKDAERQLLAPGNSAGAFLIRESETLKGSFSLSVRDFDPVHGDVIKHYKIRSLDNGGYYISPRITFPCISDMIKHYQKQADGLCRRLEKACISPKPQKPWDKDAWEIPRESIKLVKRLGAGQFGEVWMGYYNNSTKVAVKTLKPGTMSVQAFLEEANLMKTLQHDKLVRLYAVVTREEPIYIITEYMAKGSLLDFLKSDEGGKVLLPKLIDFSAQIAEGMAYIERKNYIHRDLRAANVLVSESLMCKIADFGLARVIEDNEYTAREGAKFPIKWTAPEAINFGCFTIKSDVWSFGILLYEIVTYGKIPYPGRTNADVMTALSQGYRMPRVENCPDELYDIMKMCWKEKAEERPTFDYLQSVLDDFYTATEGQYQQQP
UniProt Q12851: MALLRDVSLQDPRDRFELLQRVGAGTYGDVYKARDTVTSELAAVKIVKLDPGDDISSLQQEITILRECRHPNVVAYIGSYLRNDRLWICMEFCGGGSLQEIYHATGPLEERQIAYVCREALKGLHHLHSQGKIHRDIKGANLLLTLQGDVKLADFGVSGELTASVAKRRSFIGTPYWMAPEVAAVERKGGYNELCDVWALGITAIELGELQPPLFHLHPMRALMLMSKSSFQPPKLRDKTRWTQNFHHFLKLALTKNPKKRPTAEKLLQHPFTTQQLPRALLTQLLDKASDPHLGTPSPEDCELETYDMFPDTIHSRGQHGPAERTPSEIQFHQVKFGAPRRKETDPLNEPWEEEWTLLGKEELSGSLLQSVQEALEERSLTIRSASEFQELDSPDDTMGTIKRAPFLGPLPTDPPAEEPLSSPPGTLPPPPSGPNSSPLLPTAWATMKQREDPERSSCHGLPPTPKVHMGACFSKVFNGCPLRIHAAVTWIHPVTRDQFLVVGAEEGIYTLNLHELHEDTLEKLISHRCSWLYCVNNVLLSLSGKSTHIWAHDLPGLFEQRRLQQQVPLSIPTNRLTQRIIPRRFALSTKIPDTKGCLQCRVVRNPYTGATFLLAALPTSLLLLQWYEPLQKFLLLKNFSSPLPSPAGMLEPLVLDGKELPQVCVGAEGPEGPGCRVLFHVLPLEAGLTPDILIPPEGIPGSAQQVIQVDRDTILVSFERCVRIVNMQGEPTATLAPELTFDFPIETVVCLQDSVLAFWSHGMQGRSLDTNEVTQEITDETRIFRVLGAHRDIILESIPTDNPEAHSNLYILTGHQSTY

Measured: kinase-Nluc reporter destabilization hit call

C=C1C(=O)[C@@]23[C@H](O)C[C@@H]4C(C)(C)C(=O)CC[C@@]4(C)[C@@H]2CC[C@@H]1[C@H]3O [Glaucocalyxin A] (2.5 µM)
inactive: [1] 0 | [2] 0 | [3] 0 | [4] 0 | [5] 0 | [6] 0 | [7] 0 | [8] 0 | [9] 0 | [10] 0

COc1cc(F)ccc1-c1ncnc(Nc2cccc(C[S@](C)(=N)=O)c2)n1 [Atuveciclib] (2.5 µM)
inactive: [1] 0 | [2] 0 | [3] 0 | [4] 0 | [5] 0 | [6] 0 | [7] 0 | [8] 0 | [9] 0 | [10] 0

COc1cc2nccc(Oc3ccc(NC(=O)c4cn(C(C)C)c(=O)n(-c5ccc(F)cc5)c4=O)cc3F)c2cc1OC (0.5 µM)
inactive: [1] 0 | [2] 0 | [3] 0 | [4] 0 | [5] 0 | [6] 0 | [7] 0 | [8] 0 | [9] 0 | [10] 0

COC(=O)[C@H](CCSC)NC(=O)c1ccc(NC[C@@H](N)CS)cc1-c1ccccc1 [FTI-277 (hydrochloride)] (10 µM)
inactive: [1] 0 | [2] 0 | [3] 0 | [4] 0 | [5] 0 | [6] 0 | [7] 0 | [8] 0 | [9] 0 | [10] 0

Cc1cc(C(=O)NC(C)(C)C)cc(C#Cc2ccc3c4c(oc3c2)C(C)(C)c2cc(NS(C)(=O)=O)ccc2C4=O)n1 (10 µM)
inactive: [1] 0 | [2] 0 | [3] 0 | [4] 0 | [5] 0 | [6] 0 | [7] 0 | [8] 0 | [9] 0 | [10] 0

Cn1ncc(NC(=O)c2nc(-c3c(F)cccc3F)sc2N)c1N1CC[C@@H](N)[C@H](F)CC1 (10 µM)
inactive: [1] 0 | [2] 0 | [3] 0 | [4] 0 | [5] 0 | [6] 0 | [7] 0 | [8] 0 | [9] 0 | [10] 0

CCn1c(-c2nonc2N)nc2c(C#CC(C)(C)O)ncc(OC[C@H]3CCCNC3)c21 (10 µM)
inactive: [1] 0 | [2] 0 | [3] 0 | [4] 0 | [5] 0 | [6] 0 | [7] 0 | [8] 0 | [9] 0 | [10] 0

COc1ccc2c(Oc3ccc4c(C(=O)Nc5ccccc5N)cccc4c3)ccnc2c1 [Chiauranib] (10 µM)
inactive: [1] 0 | [2] 0 | [3] 0 | [4] 0 | [5] 0 | [6] 0 | [7] 0 | [8] 0 | [9] 0 | [10] 0

COc1cc2ncnc(Oc3ccc(CC(=O)Nc4cnn(C(C)C)c4)cc3)c2cc1OC (10 µM)
inactive: [1] 0 | [2] 0 | [3] 0 | [4] 0 | [5] 0 | [6] 0 | [7] 0 | [8] 0 | [9] 0 | [10] 0

CCN(CC)CCOc1ccc(Nc2nc(-c3ccccc3NC(=O)CCN3CCN(C)CC3)nc3ccccc23)cc1 (2.5 µM)
inactive: [1] 0 | [2] 0 | [3] 0 | [4] 0 | [5] 0 | [6] 0 | [7] 0 | [8] 0 | [9] 0 | [10] 0

c1nc2c(NC3CCCCC3)nc(Nc3ccc(N4CCOCC4)cc3)nc2[nH]1 [Reversine] (10 µM)
inactive: [1] 0 | [2] 0 | [3] 0 | [4] 0 | [5] 0 | [6] 0 | [7] 0 | [8] 0 | [9] 0 | [10] 0

COc1cc2ncnc(Nc3cccc(I)c3)c2cc1OC (2.5 µM)
inactive: [1] 0 | [2] 0 | [3] 0 | [4] 0 | [5] 0 | [6] 0 | [7] 0 | [8] 0 | [9] 0 | [10] 0

CNC(=O)c1ccc2c(c1)ncn2-c1ccc(CC(=O)OC(C)(C)C)cc1 (10 µM)
inactive: [1] 0 | [2] 0 | [3] 0 | [4] 0 | [5] 0 | [6] 0 | [7] 0 | [8] 0 | [9] 0 | [10] 0

CCNC(=O)C#Cc1ccc2c(C(=Nc3ccc(CN(C)C)cc3)c3ccccc3)c(O)[nH]c2c1 (2.5 µM)
inactive: [1] 0 | [2] 0 | [3] 0 | [4] 0 | [5] 0 | [6] 0 | [7] 0 | [8] 0 | [9] 0 | [10] 0

O=C(NCCO)c1cc(C(=O)NCCO)cc(C(=O)NCCO)c1 (10 µM)
inactive: [1] 0 | [2] 0 | [3] 0 | [4] 0 | [5] 0 | [6] 0 | [7] 0 | [8] 0 | [9] 0 | [10] 0

O=C(Nc1cc(Cl)cc2c1[nH]c1cnccc12)c1cccnc1 (10 µM)
inactive: [1] 0 | [2] 0 | [3] 0 | [4] 0 | [5] 0 | [6] 0 | [7] 0 | [8] 0 | [9] 0 | [10] 0

CN1CCN(c2cc(-c3ccncc3)c(-c3ccc4ccccc4c3)nn2)CC1 (10 µM)
inactive: [1] 0 | [2] 0 | [3] 0 | [4] 0 | [5] 0 | [6] 0 | [7] 0 | [8] 0 | [9] 0 | [10] 0

CNC(=O)CNc1cnc2ccc(-c3ccc(OC)c(OC)c3)cc2n1 (10 µM)
inactive: [1] 0 | [2] 0 | [3] 0 | [4] 0 | [5] 0 | [6] 0 | [7] 0 | [8] 0 | [9] 0 | [10] 0

N#Cc1ccc(-c2cnc3[nH]cc(NC(=O)c4cccnc4)c3c2)cc1 (10 µM)
inactive: [1] 0 | [2] 0 | [3] 0 | [4] 0 | [5] 0 | [6] 0 | [7] 0 | [8] 0 | [9] 0 | [10] 0

O=C(Nc1cccnc1)c1cc(-c2ccnc(F)c2)ccc1OCc1ccccc1 (10 µM)
inactive: [1] 0 | [2] 0 | [3] 0 | [4] 0 | [5] 0 | [6] 0 | [7] 0 | [8] 0 | [9] 0 | [10] 0

N#Cc1ccc(-c2cnc3ccc(-c4ccc(C(=O)N5CCOCC5)cc4)cn23)cc1 (10 µM)
inactive: [1] 0 | [2] 0 | [3] 0 | [4] 0 | [5] 0 | [6] 0 | [7] 0 | [8] 0 | [9] 0 | [10] 0

O=c1c2c([nH]n1-c1nc3ccccc3s1)CCCC2 (10 µM)
inactive: [1] 0 | [2] 0 | [3] 0 | [4] 0 | [5] 0 | [6] 0 | [7] 0 | [8] 0 | [9] 0 | [10] 0

Cc1c(C(=O)Nc2ccc(Oc3ccnc4[nH]cc(-c5ccccc5)c34)c(F)c2)c(=O)n(-c2ccc(F)cc2)n1C (10 µM)
inactive: [1] 0 | [2] 0 | [3] 0 | [4] 0 | [5] 0 | [6] 0 | [7] 0 | [8] 0 | [9] 0 | [10] 0

COc1cc(-c2oc3cc(O)cc(O)c3c(=O)c2O)ccc1O [Isorhamnetin] (10 µM)
inactive: [1] 0 | [2] 0 | [3] 0 | [4] 0 | [5] 0 | [6] 0 | [7] 0 | [8] 0 | [9] 0 | [10] 0

Cc1cc(Nc2cc(N3CCN(C)CC3)nc(Nc3ccc([N+](=O)[O-])cc3)n2)n[nH]1 (2.5 µM)
inactive: [1] 0 | [2] 0 | [3] 0 | [4] 0 | [5] 0 | [6] 0 | [7] 0 | [8] 0 | [9] 0 | [10] 0

CCCn1/c(=N/C(=O)c2cccc(C(N)=O)c2)[nH]c2ccccc21 [Takinib] (10 µM)
inactive: [1] 0 | [2] 0 | [3] 0 | [4] 0 | [5] 0 | [6] 0 | [7] 0 | [8] 0 | [9] 0 | [10] 0

O=C(ON=C1c2ccccc2-c2nc3ccccc3nc21)c1ccco1 (2.5 µM)
inactive: [1] 0 | [2] 0 | [3] 0 | [4] 0 | [5] 0 | [6] 0 | [7] 0 | [8] 0 | [9] 0 | [10] 0

NC(=O)c1cnc(-c2ccc(C3(N)CCC3)cc2)c(-c2ccccc2)c1 (10 µM)
inactive: [1] 0 | [2] 0 | [3] 0 | [4] 0 | [5] 0 | [6] 0 | [7] 0 | [8] 0 | [9] 0 | [10] 0

An excerpt from above in order of number of heavy atoms, falling.
Cc1cc(Nc2cc(N3CCN(C)CC3)nc(Nc3ccc([N+](=O)[O-])cc3)n2)n[nH]1 (2.5 µM)
inactive: [1] 0 | [2] 0 | [3] 0 | [4] 0 | [5] 0 | [6] 0 | [7] 0 | [8] 0 | [9] 0 | [10] 0

O=C(ON=C1c2ccccc2-c2nc3ccccc3nc21)c1ccco1 (2.5 µM)
inactive: [1] 0 | [2] 0 | [3] 0 | [4] 0 | [5] 0 | [6] 0 | [7] 0 | [8] 0 | [9] 0 | [10] 0

COc1cc(-c2oc3cc(O)cc(O)c3c(=O)c2O)ccc1O [Isorhamnetin] (10 µM)
inactive: [1] 0 | [2] 0 | [3] 0 | [4] 0 | [5] 0 | [6] 0 | [7] 0 | [8] 0 | [9] 0 | [10] 0

Additional records.

CCc1c[nH]c2ncnc(N3CC[C@](N)(CNC(=O)c4ccc(F)cc4F)C3)c12 (10 µM)
inactive: [1] 0 | [2] 0 | [3] 0 | [4] 0 | [5] 0 | [6] 0 | [7] 0 | [8] 0 | [9] 0 | [10] 0

CC1(N)CCN(c2cccnc2NC(=O)c2nc(-c3ncccc3C(F)(F)F)cnc2N)CC1 [Darovasertib] (10 µM)
inactive: [1] 0 | [2] 0 | [3] 0 | [4] 0 | [5] 0 | [6] 0 | [7] 0 | [8] 0 | [9] 0 | [10] 0
